Results reported in publication PMC8784505.
Results are given in words; binding and its absence hold for the method and conditions named. Binding seen in cells or lysates may run through a third protein. Some results given as binding are weak or reduced against the parent protein; the word gives no strength. Tags and fused reporters may be left off the sequences shown.

Target: T1, EGFP-CD151 fusion protein (hCD151 in pEGFP-C1) (human) (UniProt P48509)
T1 sequence: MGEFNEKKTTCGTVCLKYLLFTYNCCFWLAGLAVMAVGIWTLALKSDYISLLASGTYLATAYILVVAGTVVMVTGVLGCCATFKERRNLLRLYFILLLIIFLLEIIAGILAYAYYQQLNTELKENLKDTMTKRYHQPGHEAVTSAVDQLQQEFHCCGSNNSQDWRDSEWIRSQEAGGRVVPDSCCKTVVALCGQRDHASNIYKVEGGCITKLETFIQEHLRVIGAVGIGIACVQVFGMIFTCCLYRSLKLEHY
Assay: co-IP; EGFP-CD151 precipitated with GFP Selector beads (1 h, 4 °C) from lysates of HEK293T, Caco2 or HK-2 cells; immunoblot for JAM-A and GFP

B1: endogenous JAM-A of Caco2 and HK-2 cells (protein, UniProt Q9Y624 28-299)
chain: SVTVHSSEPEVRIPENNPVKLSCAYSGFSSPRVEWKFDQGDTTRLVCYNNKITASYEDRVTFLPTGITFKSVTREDTGTYTCMVSEEGGNSYGEVKVKLIVLVPPSKPTVNIPSSATIGNRAVLTCSEQDGSPPSEYTWFKDGIVMPTNPKSTRAFSNSSYVLNPTTGELVFDPLSASDTGEYSCEARNGYGTPMTSNAVRMEAVERNVGVIVAAVLVTLILLGILVFGIWFAYSRGHFDRTKKGTSSKKVIYSQPSARSEGEFKQTSSFLV
binding: binds

B2: JAM-A in HEK293T cells (protein, UniProt Q9Y624 28-299)
chain: B1 chain
binding: binds
